Taken from: PubChem BioAssay AID1259299 (Sanger Institute, 2017)
The whole screen tested 794 reagents; shown is a part drawn at random. 9 of all reagents (1.1%) were called active. 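Calls rest on knock-down alone; synergy scores play no part in calls, and no gene passed the synergy cut.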 Viability is capped at 1. Not stated in the record: the amount of reagent, the time to read-out.

- Assay: 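Essential genes and drug-synergistic partners among kinases and colorectal mutation genes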 (primary screen)
- Cells: human CAR1 colorectal cancer cells
- Reagent: siRNA pool against human genes
- Treatment: anchor drug BYL719 1 µM, cetuximab 5 µg/ml or trametinib 10 nM, or DMSO vehicle alone; exposure length not given
- Measured: 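Cell viability as fraction of non-targeting siRNA wells, mean of replicates, with robust z-score and a synergy score for each of three drugs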
- Scale: viability robust z-score, knock-down alone and viability, knock-down alone (DMSO): higher = more viable cells; synergy score with BYL719 and synergy score with cetuximab and synergy score with trametinib: higher = stronger synergy with drug (synthetic lethal)
- Hit rule: 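Essential when viability robust z-score with knock-down alone (DMSO) is below -3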
- Meaning of the calls: active = essential (knock-down alone); inactive = no change

The opening 4 records, ahead of the listing:
no.	Gene	viability robust z-score, knock-down alone	viability, knock-down alone (DMSO) (fraction of control)	synergy score with BYL719	synergy score with cetuximab	synergy score with trametinib	outcome
1	RPS6KA4	-0.36	0.894	-0.0717	-0.0982	-0.128	inactive
2	ERBB3	0.789	1	-0.108	0.0438	0.223	inactive
3	FER	0.321	0.957	-0.24	-0.0391	-0.254	inactive
4	SPHK2	0.605	0.983	-0.109	-0.0444	-0.165	inactive

Results, from the first entry:
no.	Gene	viability robust z-score, knock-down alone	viability, knock-down alone (DMSO) (fraction of control)	synergy score with BYL719	synergy score with cetuximab	synergy score with trametinib	outcome
1	RPS6KA4	-0.36	0.894	-0.0717	-0.0982	-0.128	inactive
2	ERBB3	0.789	1	-0.108	0.0438	0.223	inactive
3	FER	0.321	0.957	-0.24	-0.0391	-0.254	inactive
4	SPHK2	0.605	0.983	-0.109	-0.0444	-0.165	inactive
5	CAMKK2	0.789	1	-0.191	-0.0216	-0.12	inactive
6	WNK4	-0.0741	0.92	-0.2	-0.0683	-0.118	inactive
7	PXK	-0.157	0.913	-0.0378	0.0685	-0.078	inactive
8	PIKFYVE	0.699	0.992	-0.206	-0.0753	-0.128	inactive
9	NIM1K	0.789	1	-0.203	-0.073	-0.179	inactive
10	KCNH2	-2.64	0.683	-0.275	-0.221	-0.122	inactive
11	MARK4	-0.616	0.87	-0.131	-0.193	-0.151	inactive
12	PKIB	0.789	1	-0.0659	0.0428	0.077	inactive
13	DNMT3A	-2.09	0.734	-0.0699	-0.122	-0.0787	inactive
14	TWF2	-0.709	0.862	-0.16	-0.092	-0.142	inactive
15	TCF12	0.6	0.983	-0.11	-0.0634	-0.114	inactive
16	STRADA	0.789	1	-0.0289	-0.073	-0.0689	inactive
17	PRKAR1B	-1.06	0.829	-0.11	-0.0523	-0.0415	inactive
18	PAK3	0.203	0.946	-0.116	0.0153	-0.00722	inactive
19	DGKA	0.19	0.945	0.128	0.00158	0.185	inactive
20	CHUK	0.407	0.965	-0.158	-0.0216	-0.0982	inactive
21	PRP4K	-2.23	0.721	-0.184	-0.252	-0.0965	inactive
22	ADK	-0.592	0.872	-0.158	0.000734	-0.0944	inactive
23	PKN3	-0.147	0.914	-0.139	-0.0531	0.00297	inactive
24	FLT3	-0.0782	0.92	-0.149	-0.0809	-0.00641	inactive
25	NLK	-0.18	0.911	-0.0207	-0.00474	0.0403	inactive
26	MAPKAPK2	0.789	1	-0.0359	0.0497	-0.181	inactive
27	MAPK6	0.789	1	-0.0669	-0.0476	-0.141	inactive
28	AK2	0.789	1	-0.128	-0.073	-0.0684	inactive
29	PRKX	0.789	1	-0.182	-0.073	-0.203	inactive
30	TNK1	0.789	1	-0.00281	-0.073	-0.0964	inactive
31	CSNK2A2	-3.94	0.564	-0.169	-0.164	-0.198	active
32	MET	0.789	1	-0.124	-0.073	-0.11	inactive
33	STK3	0.503	0.974	-0.142	-0.0309	-0.183	inactive
34	IDH2	0.789	1	-0.0493	0.0222	-0.188	inactive
35	CSNK1E	-2.54	0.692	-0.0586	-0.153	-0.0691	inactive
36	PRPS1	-0.913	0.843	-0.199	-0.0318	-0.108	inactive
37	POLR2B	0.415	0.965	-0.0388	-0.0218	-0.102	inactive
38	SMAD2	0.511	0.974	-0.0601	-0.0269	-0.143	inactive
39	DSTYK	0.789	1	-0.206	-0.022	-0.157	inactive
40	NME4	0.789	1	-0.164	-0.073	-0.114	inactive
41	PLK4	-0.992	0.835	-0.227	-0.0758	-0.0138	inactive
42	AMER1	0.789	1	-0.101	-0.073	-0.0232	inactive
43	TRIB1	-0.238	0.905	-0.155	-0.161	-0.0101	inactive
44	NPR2	0.432	0.967	-0.0735	0.0327	-0.0742	inactive
45	BCOR	0.789	1	0.0702	0.00312	-0.0439	inactive
46	CAMK1D	-0.262	0.903	-0.173	-0.0822	-0.124	inactive
47	PIK3R3	0.789	1	-0.117	0.00743	-0.221	inactive
48	TRIB2	-0.0885	0.919	-0.0871	0.0299	-0.0425	inactive
49	CDC42BPA	-0.161	0.912	-0.133	0.0069	0.00402	inactive
50	ULK4	-0.209	0.908	-0.127	-0.0729	-0.0145	inactive
